In the supplement of paper PMC6289059 one finds ATP level data, which are given here for 60 molecules.

The structures appear in SMILES notation. This is one part of the list. Single values are uncertain, as repeats are few or missing.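 Hepatocyte-like cells derived from human stem cells with CRISPR-disrupted DGUOK model liver mtDNA depletion syndrome. Each well's ATP signal was scored against other wells on the same plate, and drugs scoring 3 or above were primary hits.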

The subject of this test is DGUOK Δ14/Δ5 iPSC-derived hepatocyte-like cells (SV20). Description: ATP level (CellTiter-Glo luminescence) Z score relative to plate distribution, under 2-DG glycolysis block; higher = more cellular ATP (rescue of mitochondrial ATP production). Conditions: 5 µM; treatment time: day 15 to day 20 of differentiation (5 days); 2-deoxy-D-glucose: 20 mM for 24 h before assay. In general terms: ATP-based viability assays read luminescence as a measure of living cells.
In the case of `O=S(=O)(O)NC1CCCCC1`, the ATP level was inactive: 1.86.

Turning to `CCc1cn([C@H]2C[C@H](O)[C@@H](CO)O2)c(=O)[nH]c1=O`, the ATP level is inactive: 1.79.

As to `C[C@@H]1O[C@@H](O[C@H]2[C@H](Oc3cc(O)c4c(=O)cc(-c5ccc(O)cc5)oc4c3)O[C@H](CO)[C@@H](O)[C@@H]2O)[C@H](O)[C@H](O)[C@H]1O`, the ATP level was inactive: 1.77.

For `CCN(CC)CCc1nc(-c2ccccc2)no1`, the ATP level was inactive: -0.149.

As to `Cc1c(N(C)CS(=O)(=O)O)c(=O)n(-c2ccccc2)n1C`, the ATP level is active: 9.89.

Turning to `CC(NCCC(c1ccccc1)c1ccccc1)c1ccccc1` (stereo not given), the ATP level was inactive: -3.13.

For the molecule `COc1cc2c3cc1Oc1c(OC)c(OC)cc4c1[C@@H](Cc1ccc(O)c(c1)Oc1ccc(cc1)C[C@@H]3N(C)CC2)N(C)CC4`, the ATP level is inactive: -3.32.

Take `CC(=O)Oc1ccc2c(C)cc(=O)oc2c1`: the ATP level is inactive: -0.772.

In the case of `COc1c2occc2c(OC)c2c(=O)cc(C)oc12`, the ATP level was inactive: -0.606.

Take `C1CNCCN1`: the ATP level was inactive: 1.38.

Consider `Nc1cc(C(Cl)=C(Cl)Cl)c(S(N)(=O)=O)cc1S(N)(=O)=O`, for which the ATP level was inactive: -3.68.

Regarding `C[C@H](CCC(=O)O)[C@H]1CC[C@H]2[C@@H]3[C@H](O)C[C@@H]4C[C@H](O)CC[C@]4(C)[C@H]3CC[C@]12C`, the ATP level was inactive: 1.85.

On to `CC(=O)OCC(CCn1cnc2cnc(N)nc21)COC(C)=O`, for which the ATP level is inactive: -4.58.

For the molecule `NNc1nncc2ccccc12`, the ATP level was inactive: -5.17.

For `O=C(/C=C/c1ccc(O)c(O)c1)OCCc1ccccc1`, the ATP level is active: 4.05.

`NCC(O)CC(=O)O` (stereo not given): the ATP level was inactive: -1.68.

For `CN1CCN(CCCN2c3ccccc3Sc3ccc(Cl)cc32)CC1`, the ATP level is inactive: -8.94.

As for `O=C1c2ccccc2C(=O)c2c1ccc(O)c2O`, the ATP level was inactive: 1.31.

On to `CC(=O)Oc1cc(OC(C)=O)c2c(c1)O[C@H](c1ccc(OC(C)=O)c(OC(C)=O)c1)[C@H](OC(C)=O)C2`, for which the ATP level was inactive: -1.53.

On to `CC(=O)O[C@H]1CC[C@@]2(C)[C@@H](CC[C@@H]3[C@@H]2CC(=O)[C@]2(C)[C@@H]4[C@H](C[C@@H]32)O[C@]2(CC[C@@H](C)CO2)[C@H]4C)C1`, for which the ATP level is inactive: 0.535.

In the case of `O=c1oc2ccccc2c(O)c1Cc1c(O)c2ccccc2oc1=O`, the ATP level was inactive: 1.41.

As to `COC(=O)/C=C/C(C)=C\C=C\C(C)=C\C=C\C=C(C)\C=C\C=C(C)\C=C\C(=O)O`, the ATP level is inactive: -0.768.

On to `CN1CCCCC1CCN1c2ccccc2Sc2ccc([S+](C)[O-])cc21` (stereo not given), for which the ATP level was inactive: -0.831.

Consider `COc1c(-c2ccccc2)oc2cc(O)cc(O)c2c1=O`, for which the ATP level is inactive: -2.44.

On to `NC(=O)N/N=C/c1ccc([N+](=O)[O-])o1`, for which the ATP level was active: 3.93.

In the case of `O=C(O[C@H]1CN2CCC1CC2)N1CCc2ccccc2[C@@H]1c1ccccc1`, the ATP level is inactive: -0.369.

For `CC1=CC(=O)NS(=O)(=O)O1`, the ATP level is inactive: 2.49.

Consider `CCCC(=O)Nc1ncnc2c1ncn2[C@@H]1O[C@@H]2COP(=O)(O)O[C@H]2[C@H]1OC(=O)CCC`, for which the ATP level is inactive: 1.11.

As for `CC(=O)N[C@@H](CCC(=O)O)C(=O)O`, the ATP level was inactive: 0.083.

For `CN(C)CCC[C@@]1(c2ccc(F)cc2)OCc2cc(C#N)ccc21`, the ATP level was inactive: -1.05.

`O=C1C=CC2=C3c4cc(O)c(O)cc4CC3(O)COC2=C1` (stereo not given): the ATP level was inactive: -8.25.

With `CN1CCCC(n2nc(Cc3ccc(Cl)cc3)c3ccccc3c2=O)CC1` (stereo not given), the ATP level is inactive: -3.95.

Turning to `O=C(CNC(=O)c1ccc(Cl)cc1)NO`, the ATP level was inactive: 0.964.

With `O=c1c(-c2ccccc2)coc2ccccc12`, the ATP level was inactive: 0.41.

As for `CC(=O)Oc1cccc(O)c1`, the ATP level was inactive: 0.714.

With `CCN1CCN(C(=O)N[C@@H](C(=O)N[C@@H]2C(=O)N3[C@@H]2SC(C)(C)[C@@H]3C(=O)O)c2ccccc2)C(=O)C1=O`, the ATP level was inactive: 1.7.

For the molecule `C=CCCCCCCCCCCCC(O)CC(O)CO` (stereo not given), the ATP level was inactive: 2.52.

Turning to `O=C(NCO)c1cccnc1`, the ATP level is inactive: -1.25.

Consider `CO[C@@H]1[C@@H](OC(N)=O)[C@@H](O)[C@H](Oc2ccc3c(O)c(NC(=O)c4ccc(O)c(CC=C(C)C)c4)c(=O)oc3c2C)OC1(C)C`, for which the ATP level is inactive: 2.64.

With `CC1(C)OC(=O)NC1=O`, the ATP level was inactive: 2.59.

For the molecule `N=C(N)NCC1COC2(CCCCC2)O1` (stereo not given), the ATP level is inactive: 1.61.

In the case of `CCC[C@H](N[C@@H](C)C(=O)N1[C@H](C(=O)O)C[C@@H]2CCCC[C@@H]21)C(=O)OCC`, the ATP level is inactive: 1.06.

Take `Cn1nnnc1SCC1=C(C(=O)O)N2C(=O)[C@@H](NC(=O)[C@H](O)c3ccccc3)[C@H]2SC1`: the ATP level was inactive: 1.93.

Regarding `COc1ccc(NS(=O)(=O)c2ccc(N)cc2)nn1`, the ATP level was inactive: 2.09.

As for `Nc1ccc(C(=O)NCC(=O)O)cc1`, the ATP level is inactive: -3.59.

In the case of `OC[C@H]1O[C@@H](Oc2ccc(O)cc2)[C@H](O)[C@@H](O)[C@@H]1O`, the ATP level is inactive: 0.759.

Regarding `Nc1ccc(S(=O)(=O)c2ccc(N)cc2)cc1`, the ATP level is inactive: -2.58.

`CN(C)CCc1c[nH]c2ccc(Cn3cncn3)cc12`: the ATP level is inactive: -17.1.

For `OCCN1CCN(CCCN2c3ccccc3Sc3ccc(Cl)cc32)CC1`, the ATP level is inactive: -7.42.

In the case of `COC(=O)C1=CO[C@@H](O[C@@H]2O[C@H](CO)[C@@H](O)[C@H](O)[C@H]2O)[C@@H]2[C@@H](C)[C@@H](O)C[C@H]12`, the ATP level was inactive: -3.1.

Regarding `N[C@H]1C(O)O[C@H](CO)[C@@H](O)[C@@H]1O` (stereo not given in full), the ATP level was inactive: 1.5.

Turning to `C=C1C[C@H]2[C@@H]3C=C(C)C4=CC(=O)CC[C@]4(C)[C@H]3CC[C@]2(C)[C@@]1(OC(C)=O)C(C)=O`, the ATP level was inactive: 0.919.

Turning to `NC(C(=O)O)C(O)C(=O)O` (stereo not drawn) [d,l-threo-3-HYDROXYASPARTIC ACID], the ATP level is inactive: -0.196.

For `N=C(N)NC(=N)N1CCOCC1`, the ATP level was inactive: 2.29.

In the case of `CC(=O)Oc1cccc2c1C(=O)c1c(OC(C)=O)cc(C(=O)O)cc1C2=O`, the ATP level was inactive: -5.46.

`CC1NC(=O)NC1=O` (stereo not given): the ATP level is inactive: -0.688.

On to `Cc1ncc(CSSCc2cnc(C)c(O)c2CO)c(CO)c1O`, for which the ATP level was inactive: -0.792.

As to `CCn1cc(C(=O)O)c(=O)c2cnc(N3CCNCC3)nc21`, the ATP level is inactive: -0.533.

Regarding `NCCS(=O)(=O)O`, the ATP level was inactive: 1.88.

Turning to `COc1cc2nc(N3CCN(C(=O)c4ccco4)CC3)nc(N)c2cc1OC`, the ATP level is inactive: -2.24.
